According to patent US6169083A, “Preventives/remedies for stomatitis” (Zeria Pharmaceutical Co., Ltd., priority 1996, dated 2001):
For at least one compound, name, drawing or mass did not settle the structure.

Assay: Clinical examples: treatment of stomatitis in cancer patients subjected to chemotherapy and/or radiotherapy
Assay type: in vivo, patient
Details: person
Description: Examples (Clinical Examples):
The frequency indicated in each example indicates a symptomatic process and was judged on the basis of the side effect standard by the Japanese Cancer Association. The frequency and symptom thereof are as follows, and a higher frequency indicates a severer symptom. […]

Measured: frequency (symptom grade) after treatment

NCCC(=O)[N-][C@@H](Cc1c[nH]cn1)C(=O)[O-].[Zn+2] [crystalline L-carnosine zinc salt, L-carnosine zinc salt]
0: Example 1, breast cancer, start frequency 2, suspension 150 mg/100 ml, 5 ml rinse and swallow, 5 or 6 times a day, 8 days | Example 2, esophageal cancer, start frequency 3, suspension 450 mg/100 ml, 5 ml rinse and spit, 2 to 4 times a day 6 days, then 3 days, swab application additional 2 days | Example 3, acute myelocytic leukemia, start frequency 3, suspension 300 mg/100 ml, 5 ml rinse and swallow, twice a day, 10 days | Example 12, esophageal cancer, start frequency 3, ointment 150 mg in plastibase 100 g, swab, 3 to 5 times a day, 9 days
